# Laboratory results: PubChem BioAssay AID686938 (Drosophila RNAi Screening Center, 2013)
# Aim: 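Fly genes required for calcium entry once internal stores are emptied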 (primary screen)
# Cell system: Drosophila S2R+ cells
# Knock-down reagent: long dsRNA against Drosophila genes, about 0.25 µg dsRNA per well, roughly 10,000 cells
# Time to read-out: 5 days of knock-down before the calcium assay
# Treatment: thapsigargin (SERCA pump blocker) to empty calcium stores; entry signal taken 4 min after adding it
# Detection: 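Per-well fluo-4 fluorescence in two replicates, unnormalised, measured in resting cells and 4 min after store depletion by the SERCA blocker thapsigargin; ratio of the two present in few wells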
# Scale: calcium entry signal: higher = stronger calcium signal after store depletion; entry to resting ratio: higher = more calcium entry relative to resting level; resting calcium signal: higher = higher resting calcium signal
# Call rule: 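Called when the plate z-score of the entry-to-rest ratio, mean of duplicates, falls below −3; wells with low overall dye signal (Fmax z below −2) or more than five off-targets excluded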
# Meaning of the calls: active = strongly reduced calcium entry; inactive = no strong reduction
# The deposit covers about 23,000 reagents; this is an unselected part of those with a known target gene and a result. In the full data, 75 (0.33%) got an active call. 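Raw plate signals without normalisation; calls rest on plate z-scores that were not deposited; ratio present for only 364 wells.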 A plus sign joins genes that one reagent is predicted to hit. Not given: the dose of the treatment.
Gene,dsRNA,"calcium entry signal, replicate 1 (fluorescence units)","calcium entry signal, replicate 2 (fluorescence units)",entry to resting ratio,"resting calcium signal, replicate 1 (fluorescence units)","resting calcium signal, replicate 2 (fluorescence units)",Outcome
Pgam5,DRSC18551,2.95e7,3.20e7,,1.31e7,1.59e7,inactive
Dgat2,DRSC06803,3.96e7,2.80e7,,1.68e7,1.38e7,inactive
CG10663,DRSC09770,2.97e7,2.89e7,,1.66e7,1.43e7,inactive
klu,DRSC11357,2.45e7,3.17e7,,1.29e7,1.37e7,inactive
GM130,DRSC04617,3.93e7,,,1.90e7,,inactive
CG10628,DRSC02080,4.57e7,4.13e7,,1.81e7,1.80e7,inactive
CG9928,DRSC03274,4.54e7,3.37e7,,2.07e7,1.59e7,inactive
SkpE,DRSC19431,5.23e7,3.46e7,,2.20e7,1.48e7,inactive
CG16734,DRSC15143,3.55e7,2.97e7,,2.18e7,1.62e7,inactive
disp,DRSC12376,4.42e7,3.30e7,,2.37e7,1.72e7,inactive
Agpat3,DRSC10445,4.15e7,4.95e7,,1.86e7,3.21e7,inactive
CG14515,DRSC14867,2.99e7,3.43e7,,1.49e7,1.53e7,inactive
NimC4,DRSC01945,4.43e7,3.00e7,,2.00e7,1.43e7,inactive
Rrp47,DRSC20124,2.91e7,2.61e7,,1.49e7,1.33e7,inactive
CG32170,DRSC09452,3.33e7,4.93e7,,1.68e7,2.00e7,inactive
CG5539,DRSC04510,4.17e7,3.91e7,,2.16e7,1.80e7,inactive
hoip,DRSC03546,1.60e7,1.41e7,,1.19e7,1.01e7,inactive
CG13287,DRSC09961,5.93e7,3.17e7,,2.70e7,1.83e7,inactive
mRRF1,DRSC10421,5.52e7,4.79e7,,3.58e7,1.88e7,inactive
COX5B,DRSC02115,3.32e7,3.15e7,,1.57e7,1.49e7,inactive
Ir94f,DRSC13621,2.55e7,3.05e7,,1.43e7,1.46e7,inactive
eIF3m,DRSC07142,1.86e7,2.71e7,,1.17e7,1.84e7,inactive
Ir60e,DRSC04227,3.83e7,4.77e7,,1.94e7,2.23e7,inactive
Elo68beta,DRSC09860,2.68e7,3.75e7,,1.41e7,1.58e7,inactive
CG32266,DRSC08062,3.04e7,4.10e7,,1.70e7,1.89e7,inactive
CG4537,DRSC02756,4.02e7,5.89e7,,1.96e7,2.44e7,inactive
wfs1,DRSC15676,4.34e7,3.33e7,,2.33e7,1.67e7,inactive
Prosap,DRSC06382,3.60e7,3.85e7,,1.86e7,1.71e7,inactive
Prosap,DRSC07081,5.20e7,4.03e7,,2.17e7,1.99e7,inactive
pns,DRSC08598,3.46e7,3.95e7,,1.79e7,1.74e7,inactive
CG30197,DRSC22394,3.27e7,2.79e7,,1.58e7,1.15e7,inactive
CG4294,DRSC04460,3.54e7,,,1.65e7,,inactive
Msr-110,DRSC11227,3.54e7,2.13e7,,2.40e7,9.60e6,inactive
Ir7g,DRSC18008,2.96e7,3.52e7,,1.53e7,1.56e7,inactive
CG34268,DRSC07874,4.02e7,4.63e7,,2.13e7,2.23e7,inactive
CG5938,DRSC15923,3.52e7,3.79e7,,1.65e7,1.70e7,inactive
CR40450 + CG32767,DRSC18387,2.34e7,1.83e7,,1.05e7,8.02e6,inactive
Bap170,DRSC04964,4.19e7,,,2.04e7,,inactive
Bap170,DRSC21826,3.67e7,3.24e7,,2.06e7,1.58e7,inactive
CG8837,DRSC00711,2.96e7,2.88e7,,1.41e7,1.43e7,inactive
Nse4,DRSC02239,4.74e7,5.86e7,,2.17e7,2.43e7,inactive
NHP2,DRSC11229,3.56e7,4.62e7,,1.65e7,1.95e7,inactive
Rtca,DRSC18517,3.58e7,3.50e7,,1.68e7,1.75e7,inactive
Nulp1,DRSC09677,5.68e7,4.93e7,,3.61e7,1.94e7,inactive
Rpp30,DRSC00320,3.31e7,,,1.80e7,,inactive
CG31323,DRSC14901,4.36e7,3.90e7,,2.03e7,1.54e7,inactive
eIF5,DRSC20165,2.97e7,3.21e7,,1.72e7,1.69e7,inactive
CG42819,DRSC02264,3.22e7,4.84e7,,1.56e7,1.92e7,inactive
hbs,DRSC07627,3.57e7,5.47e7,,1.83e7,2.37e7,inactive
Pglym87,DRSC15252,4.01e7,5.06e7,,1.81e7,2.32e7,inactive
CG3092,DRSC04336,3.80e7,,,1.88e7,,inactive
Cyp4d20,DRSC08654,3.25e7,3.75e7,,1.70e7,1.70e7,inactive
CG3330,DRSC15477,5.02e7,6.03e7,,2.20e7,2.60e7,inactive
TwdlU,DRSC12224,2.71e7,4.05e7,,1.20e7,1.59e7,inactive
CSN5,DRSC16592,3.23e7,2.98e7,,1.46e7,1.27e7,inactive
CSN5,DRSC22381,3.34e7,4.58e7,,1.56e7,2.46e7,inactive
pho,DRSC17219,2.77e7,5.00e7,2.3,1.22e7,1.92e7,inactive
CG4465,DRSC15584,3.86e7,4.83e7,,5.59e7,1.91e7,inactive
Mco3,DRSC15926,3.94e7,5.27e7,,1.90e7,2.26e7,inactive
Jhbp12,DRSC14621,3.90e7,4.13e7,,2.19e7,1.69e7,inactive
wry,DRSC00352,3.15e7,3.71e7,,1.53e7,1.67e7,inactive
wry,DRSC00456,3.15e7,3.78e7,,1.55e7,1.79e7,inactive
wry,DRSC22414,3.00e7,3.44e7,,1.45e7,1.48e7,inactive
Atf6,DRSC04743,3.47e7,3.31e7,,1.71e7,1.67e7,inactive
Atf6,DRSC04889,3.11e7,3.71e7,,1.68e7,1.64e7,inactive
hd,DRSC12316,3.18e7,2.87e7,,1.70e7,1.39e7,inactive
Gcna,DRSC18553,2.38e7,3.20e7,,1.20e7,1.62e7,inactive
CG17600,DRSC20638,5.01e7,4.91e7,,2.29e7,2.13e7,inactive
CG17600,DRSC20640,5.04e7,5.29e7,,2.33e7,2.23e7,inactive
CG17600,DRSC22753,4.08e7,4.08e7,,2.36e7,1.84e7,inactive
CG32625,DRSC18994,2.33e7,2.40e7,,1.26e7,1.13e7,inactive
CG32199,DRSC09990,3.54e7,5.77e7,,1.70e7,2.42e7,inactive
alph,DRSC15398,3.50e7,3.89e7,,1.68e7,1.90e7,inactive
Dhc16F,DRSC20242,3.38e7,3.56e7,,1.72e7,1.60e7,inactive
Hsp110,DRSC11186,2.26e7,3.12e7,,1.30e7,2.42e7,inactive

12 entries from above, limited to “resting calcium signal, replicate 1 (fluorescence units)”.
Rpp30 [DRSC00320] = 1.80e7
CG31323 [DRSC14901] = 2.03e7
eIF5 [DRSC20165] = 1.72e7
CG42819 [DRSC02264] = 1.56e7
hbs [DRSC07627] = 1.83e7
Pglym87 [DRSC15252] = 1.81e7
CG3092 [DRSC04336] = 1.88e7
Cyp4d20 [DRSC08654] = 1.70e7
CG3330 [DRSC15477] = 2.20e7
TwdlU [DRSC12224] = 1.20e7
CSN5 [DRSC16592] = 1.46e7
CSN5 [DRSC22381] = 1.56e7
